{"sequences": {"note": "Amino acid sequences for entries named in this document (tags omitted).", "UniProt Q92830, whole entry, looked up": "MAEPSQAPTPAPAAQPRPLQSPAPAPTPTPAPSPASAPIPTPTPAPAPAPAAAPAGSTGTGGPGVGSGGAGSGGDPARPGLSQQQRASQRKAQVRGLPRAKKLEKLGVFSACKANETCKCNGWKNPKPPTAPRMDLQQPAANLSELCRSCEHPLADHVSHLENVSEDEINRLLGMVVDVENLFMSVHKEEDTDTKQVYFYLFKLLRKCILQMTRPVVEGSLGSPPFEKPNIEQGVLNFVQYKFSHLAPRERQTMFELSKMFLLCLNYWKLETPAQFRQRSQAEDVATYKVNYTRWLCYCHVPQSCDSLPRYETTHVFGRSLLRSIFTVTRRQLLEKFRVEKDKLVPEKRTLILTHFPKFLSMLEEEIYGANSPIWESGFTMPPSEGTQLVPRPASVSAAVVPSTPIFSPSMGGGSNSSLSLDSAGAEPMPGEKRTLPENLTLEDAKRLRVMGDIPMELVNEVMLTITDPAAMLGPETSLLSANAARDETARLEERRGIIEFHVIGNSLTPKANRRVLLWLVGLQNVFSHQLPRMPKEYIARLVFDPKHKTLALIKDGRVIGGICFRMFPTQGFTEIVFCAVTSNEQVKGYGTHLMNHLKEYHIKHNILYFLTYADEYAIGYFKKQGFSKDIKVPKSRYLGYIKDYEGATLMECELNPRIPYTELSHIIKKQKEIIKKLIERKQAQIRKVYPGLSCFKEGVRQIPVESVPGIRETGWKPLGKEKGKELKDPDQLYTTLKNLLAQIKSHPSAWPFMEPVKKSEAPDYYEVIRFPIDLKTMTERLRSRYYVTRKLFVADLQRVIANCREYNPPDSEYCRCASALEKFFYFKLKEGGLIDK"}, "source": "PubChem BioAssay AID504327", "about": "(National Center for Advancing Translational Sciences (NCATS), 2011)", "note": "The campaign covered roughly 390,000 compounds. About 820 (0.21%) were called active. The inconclusive results got no clear call from the source; some entries with a clear call stand among them for comparison. Calls come from the whole dose curve; as a rule, active = well fitted inhibition curve with a large enough effect; inconclusive = small, poorly fitted or top-dose-only effect, or another doubt; inactive = no such curve, though single readings can be large or run the other way. A potency beside an inconclusive call is a rough fit, not a confirmed value. % is set by controls: 0 for no effect and ±100 for the full control effect; potency is the fitted concentration of half-maximal effect."}
{"target": "Histone acetyltransferase KAT2A (Homo sapiens) (UniProt Q92830)", "test": "qHTS Assay for Inhibitors of GCN5L2", "conditions": "GCN5L2 HAT assay, ThioGlo1 CoA-SH fluorescence; activity change, negative = inhibition: at 58.9 µM (top of the series) unless noted", "in_short": "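Free CoA generated was detected with ThioGlo1 (50uM) fluorescence at Ex340nm/Em540nm, read immediately and after 20 min at room temperature. Enzyme, 20 nM in HEPES pH 7.5 buffer, saw compounds 15 min before adding 75uM H3(1-25) peptide and 70uM acetyl-CoA.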"}
{"molecule": "COc1cccc2cc(-c3cc(=O)oc4ccc(OCC(C)=O)cc34)oc12", "Potency": "inconclusive: 0.708 µM [inhibitor, single point]"}
{"molecule": "CNC(=S)NCCc1ccc(OC)cc1", "activity change, negative = inhibition": "inactive: -5.14%"}
{"molecule": "COc1cccc2cc(-c3cc(=O)oc4ccc(O)cc34)oc12", "Potency": "inconclusive: 0.631 µM [inhibitor, full curve, poor fit]"}
{"molecule": "CN(C)CCCNc1oc(/C=C/c2ccccc2)nc1C#N", "Potency": "inconclusive: 10 µM [inhibitor, partial curve, poor fit]"}
{"molecule": "COCCNC(=O)C(=O)Nc1ccc2nc3n(c(=O)c2c1)CCCCC3", "activity change, negative = inhibition": "inactive: -3.47%"}
{"molecule": "CC1(C)Cc2ccccc2C(C(=O)c2ccccc2)=N1", "Potency": "inconclusive: 0.794 µM [inhibitor, single point]"}
{"molecule": "c1ccc(-c2nc3c4ccccc4ccn3c2CN2CCCCC2)cc1", "Potency": "inconclusive: 39.8 µM [inhibitor, single point]"}
{"molecule": "O=C(OCc1cn(-c2ccc(Cl)c(Cl)c2)nn1)c1ccccc1Cl", "Potency": "inconclusive: 39.8 µM [inhibitor, single point]"}
{"molecule": "N#C/C(=C\\c1ccccc1Br)C(=O)NC1CC1", "Potency": "inconclusive: 0.794 µM [inhibitor, single point]"}
{"molecule": "Nc1cc2nsnc2cc1Br", "Potency": "inconclusive: 20 µM [inhibitor, single point]"}
{"molecule": "N/C(=N\\OC(=O)c1ccc(Cl)cc1Cl)c1ccncc1", "activity change, negative = inhibition": "inactive: -4.11%"}
{"molecule": "COc1ccc(N=C2NC(=O)/C(=C\\c3ccco3)S2)cc1", "Potency": "inconclusive: 39.8 µM [inhibitor, single point]"}
{"molecule": "COc1ccc(CN2CCN(C(=O)c3cccnc3)CC2)cc1Br", "activity change, negative = inhibition": "inactive: -4.45%"}
{"molecule": "Cc1ccc2c(cnn2C(=O)CCC(=O)N2CCCCC2C)c1", "note": "(stereo not given)", "Potency": "inconclusive: 0.794 µM [inhibitor, single point]"}
{"molecule": "OCc1ccc(-c2ccc(-c3ccc(CO)s3)o2)s1", "Potency": "inconclusive: 3.55 µM [inhibitor, partial curve]"}
{"molecule": "O=C(Nc1ccc(F)cc1F)C1CCN(c2ncnc3c2sc2cccc(F)c23)CC1", "Potency": "inconclusive: 0.891 µM [inhibitor, single point]"}
{"molecule": "O=C(CSc1ccc(-c2ccccn2)nn1)N1CCc2ccccc21", "Potency": "inconclusive: 0.708 µM [inhibitor, single point]"}
{"molecule": "CC(C)(C)c1ccc(/C=N/NC(=O)CN2CCS(=O)(=O)CC2)cc1", "Potency": "inconclusive: 3.16 µM [inhibitor, single point]"}
{"molecule": "NC(=S)N/N=C/c1ccccc1", "Potency": "inconclusive: 8.91 µM [inhibitor, single point]"}
{"molecule": "COC(=O)c1[nH]c2ccc(C)cc2c1NS(=O)(=O)c1ccc(F)c(C)c1", "Potency": "inconclusive: 39.8 µM [inhibitor, single point]"}
